Our source for the binding values is PMC4438304.

No constants are given. Whether binding was seen depends on the method and setting. In cells and extracts the contact can be indirect. A result given as binding can be weak or reduced; the word gives no strength.

The experiment deals with T1, Rpt1 (S. cerevisiae) (UniProt P33299).
T1 sequence: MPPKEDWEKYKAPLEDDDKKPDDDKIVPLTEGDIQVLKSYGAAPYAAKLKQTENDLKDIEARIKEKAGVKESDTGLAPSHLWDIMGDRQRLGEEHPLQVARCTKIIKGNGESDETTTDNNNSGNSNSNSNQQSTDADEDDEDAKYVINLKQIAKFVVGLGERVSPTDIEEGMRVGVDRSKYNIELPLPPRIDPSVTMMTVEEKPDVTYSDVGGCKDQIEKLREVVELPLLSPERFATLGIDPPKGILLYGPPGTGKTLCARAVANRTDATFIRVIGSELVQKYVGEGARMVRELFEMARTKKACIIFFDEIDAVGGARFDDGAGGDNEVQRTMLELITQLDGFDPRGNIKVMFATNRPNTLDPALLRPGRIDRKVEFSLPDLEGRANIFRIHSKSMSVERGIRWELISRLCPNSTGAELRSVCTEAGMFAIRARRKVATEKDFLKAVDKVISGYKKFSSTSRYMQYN
Kind of experiment: pull-down; each RPT ATPase purified and immobilized on CH-sepharose beads, incubated with full-length Rpn11 or Rpn11ΔC; BSA beads as mock; anti-Rpn11 immunoblot. For orientation: In western blotting, separated proteins are transferred to a membrane and probed.

Take “Rpn11ΔC (S. cerevisiae) (domain or fragment)”: the binding result was “binds”.
